For the test, the system named is MDA-MB-231. As to the kind of experiment: Antiproliferative activity against human MDA-MB-231 cells incubated for 48 hrs by […] dye staining based assay. Type of test: functional, cell-based. The note with it: MDA-MB-231, 48 h. A digest of the protocol:
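Cells were grown per ECACC recommendations and seeded in triplicate at 2 × 10³ (HCT-116) or 4 × 10³ (other lines) per well. After 24 h attachment, they were exposed 48 h to increasing concentrations of 0.1 to 25. Cells were then fixed in cold 90% ethanol/5% acetic acid, nuclei were Hoechst-stained, and nuclei were counted by automated imaging.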

In general, IC50 refers to the concentration that gives 50% inhibition. A higher IC50 goes with weaker potency.

SMILES strings stand for the structures.

The molecule `CC[C@H](CO)Nc1nc(NCc2ccccc2)c2ncn(C(C)C)c2n1` [SELICICLIB] showed an IC50 of 12 µM.

Source of the values: ChEMBL document CHEMBL2086312, “Synthesis and biological evaluation of new 5-benzylated 4-oxo-3,4-dihydro-5H-pyridazino[4,5-b]indoles as PI3Kα inhibitors” (Eur J Med Chem, 2012).
